This experiment deals with c-Maf (bait of the AP/MS) (UniProt O75444). Nature of the experiment: affinity purification with mass spectrometry; affinity purification with a c-Maf specific antibody, then LC/MS/MS; done as in ref. 12, cells not told.

Protein sequences, listed by entry. Tags and fused reporters are not part of them.
UniProt O75444: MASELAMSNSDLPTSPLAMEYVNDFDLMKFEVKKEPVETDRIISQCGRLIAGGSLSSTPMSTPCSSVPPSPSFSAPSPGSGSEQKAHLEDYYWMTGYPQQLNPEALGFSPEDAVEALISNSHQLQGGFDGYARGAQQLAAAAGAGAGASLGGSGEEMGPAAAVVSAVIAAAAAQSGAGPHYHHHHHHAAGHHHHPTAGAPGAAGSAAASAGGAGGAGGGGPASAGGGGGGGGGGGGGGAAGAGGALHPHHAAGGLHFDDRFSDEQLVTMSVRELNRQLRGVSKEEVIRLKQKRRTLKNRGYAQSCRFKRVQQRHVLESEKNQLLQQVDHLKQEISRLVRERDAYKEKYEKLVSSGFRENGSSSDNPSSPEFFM

Results are given in words; binding and its absence hold for the method and conditions named. In cells and extracts the contact can be indirect. Here binding means that the protein was enriched with, or labelled near, the bait; the list need not be complete.

B1: UBE2O (found by MS in the c-Maf co-immunoprecipitates) (enzyme, UniProt Q9C0C9 1-1292)
chain: MADPAAPTPAAPAPAQAPAPAPEAVPAPAAAPVPAPAPASDSASGPSSDSGPEAGSQRLLFSHDLVSGRYRGSVHFGLVRLIHGEDSDSEGEEEGRGSSGCSEAGGAGHEEGRASPLRRGYVRVQWYPEGVKQHVKETKLKLEDRSVVPRDVVRHMRSTDSQCGTVIDVNIDCAVKLIGTNCIIYPVNSKDLQHIWPFMYGDYIAYDCWLGKVYDLKNQIILKLSNGARCSMNTEDGAKLYDVCPHVSDSGLFFDDSYGFYPGQVLIGPAKIFSSVQWLSGVKPVLSTKSKFRVVVEEVQVVELKVTWITKSFCPGGTDSVSPPPSVITQENLGRVKRLGCFDHAQRQLGERCLYVFPAKVEPAKIAWECPEKNCAQGEGSMAKKVKRLLKKQVVRIMSCSPDTQCSRDHSMEDPDKKGESKTKSEAESASPEETPDGSASPVEMQDEGAEEPHEAGEQLPPFLLKEGRDDRLHSAEQDADDEAADDTDDTSSVTSSASSTTSSQSGSGTSRKKSIPLSIKNLKRKHKRKKNKITRDFKPGDRVAVEVVTTMTSADVMWQDGSVECNIRSNDLFPVHHLDNNEFCPGDFVVDKRVQSCPDPAVYGVVQSGDHIGRTCMVKWFKLRPSGDDVELIGEEEDVSVYDIADHPDFRFRTTDIVIRIGNTEDGAPHKEDEPSVGQVARVDVSSKVEVVWADNSKTIILPQHLYNIESEIEESDYDSVEGSTSGASSDEWEDDSDSWETDNGLVEDEHPKIEEPPIPPLEQPVAPEDKGVVISEEAATAAVQGAVAMAAPMAGLMEKAGKDGPPKSFRELKEAIKILESLKNMTVEQLLTGSPTSPTVEPEKPTREKKFLDDIKKLQENLKKTLDNVAIVEEEKMEAVPDVERKEDKPEGQSPVKAEWPSETPVLCQQCGGKPGVTFTSAKGEVFSVLEFAPSNHSFKKIEFQPPEAKKFFSTVRKEMALLATSLPEGIMVKTFEDRMDLFSALIKGPTRTPYEDGLYLFDIQLPNIYPAVPPHFCYLSQCSGRLNPNLYDNGKVCVSLLGTWIGKGTERWTSKSSLLQVLISIQGLILVNEPYYNEAGFDSDRGLQEGYENSRCYNEMALIRVVQSMTQLVRRPPEVFEQEIRQHFSTGGWRLVNRIESWLETHALLEKAQALPNGVPKASSSPEPPAVAELSDSGQQEPEDGGPAPGEASQGSDSEGGAQGLASASRDHTDQTSETAPDASVPPSVKPKKRRKSYRSFLPEKSGYPDIGFPLFPLSKGFIKSIRGVLTQFRAALLEAGMPECTEDK
As to B1, the binding entry is on record as “binds”.
